These are yes or no findings as the source states them, for the method shown. In cells and extracts the contact can be indirect. Some binding calls cover weakened binding; strength is not graded here. Tags and fused reporters may be left off the sequences shown.

By UniProt entry, the sequences of proteins in these tests, tags left out. Where a name states a change or a piece, a line headed by the entry shows the natural chain unless it says otherwise. Chains listed by the source or under a name are the forms on record and can include a tag or linker.
NF p.2069myc (wild-type neurofibromin, N-terminal 2069 amino acids, myc-tagged) (P21359-2, form named): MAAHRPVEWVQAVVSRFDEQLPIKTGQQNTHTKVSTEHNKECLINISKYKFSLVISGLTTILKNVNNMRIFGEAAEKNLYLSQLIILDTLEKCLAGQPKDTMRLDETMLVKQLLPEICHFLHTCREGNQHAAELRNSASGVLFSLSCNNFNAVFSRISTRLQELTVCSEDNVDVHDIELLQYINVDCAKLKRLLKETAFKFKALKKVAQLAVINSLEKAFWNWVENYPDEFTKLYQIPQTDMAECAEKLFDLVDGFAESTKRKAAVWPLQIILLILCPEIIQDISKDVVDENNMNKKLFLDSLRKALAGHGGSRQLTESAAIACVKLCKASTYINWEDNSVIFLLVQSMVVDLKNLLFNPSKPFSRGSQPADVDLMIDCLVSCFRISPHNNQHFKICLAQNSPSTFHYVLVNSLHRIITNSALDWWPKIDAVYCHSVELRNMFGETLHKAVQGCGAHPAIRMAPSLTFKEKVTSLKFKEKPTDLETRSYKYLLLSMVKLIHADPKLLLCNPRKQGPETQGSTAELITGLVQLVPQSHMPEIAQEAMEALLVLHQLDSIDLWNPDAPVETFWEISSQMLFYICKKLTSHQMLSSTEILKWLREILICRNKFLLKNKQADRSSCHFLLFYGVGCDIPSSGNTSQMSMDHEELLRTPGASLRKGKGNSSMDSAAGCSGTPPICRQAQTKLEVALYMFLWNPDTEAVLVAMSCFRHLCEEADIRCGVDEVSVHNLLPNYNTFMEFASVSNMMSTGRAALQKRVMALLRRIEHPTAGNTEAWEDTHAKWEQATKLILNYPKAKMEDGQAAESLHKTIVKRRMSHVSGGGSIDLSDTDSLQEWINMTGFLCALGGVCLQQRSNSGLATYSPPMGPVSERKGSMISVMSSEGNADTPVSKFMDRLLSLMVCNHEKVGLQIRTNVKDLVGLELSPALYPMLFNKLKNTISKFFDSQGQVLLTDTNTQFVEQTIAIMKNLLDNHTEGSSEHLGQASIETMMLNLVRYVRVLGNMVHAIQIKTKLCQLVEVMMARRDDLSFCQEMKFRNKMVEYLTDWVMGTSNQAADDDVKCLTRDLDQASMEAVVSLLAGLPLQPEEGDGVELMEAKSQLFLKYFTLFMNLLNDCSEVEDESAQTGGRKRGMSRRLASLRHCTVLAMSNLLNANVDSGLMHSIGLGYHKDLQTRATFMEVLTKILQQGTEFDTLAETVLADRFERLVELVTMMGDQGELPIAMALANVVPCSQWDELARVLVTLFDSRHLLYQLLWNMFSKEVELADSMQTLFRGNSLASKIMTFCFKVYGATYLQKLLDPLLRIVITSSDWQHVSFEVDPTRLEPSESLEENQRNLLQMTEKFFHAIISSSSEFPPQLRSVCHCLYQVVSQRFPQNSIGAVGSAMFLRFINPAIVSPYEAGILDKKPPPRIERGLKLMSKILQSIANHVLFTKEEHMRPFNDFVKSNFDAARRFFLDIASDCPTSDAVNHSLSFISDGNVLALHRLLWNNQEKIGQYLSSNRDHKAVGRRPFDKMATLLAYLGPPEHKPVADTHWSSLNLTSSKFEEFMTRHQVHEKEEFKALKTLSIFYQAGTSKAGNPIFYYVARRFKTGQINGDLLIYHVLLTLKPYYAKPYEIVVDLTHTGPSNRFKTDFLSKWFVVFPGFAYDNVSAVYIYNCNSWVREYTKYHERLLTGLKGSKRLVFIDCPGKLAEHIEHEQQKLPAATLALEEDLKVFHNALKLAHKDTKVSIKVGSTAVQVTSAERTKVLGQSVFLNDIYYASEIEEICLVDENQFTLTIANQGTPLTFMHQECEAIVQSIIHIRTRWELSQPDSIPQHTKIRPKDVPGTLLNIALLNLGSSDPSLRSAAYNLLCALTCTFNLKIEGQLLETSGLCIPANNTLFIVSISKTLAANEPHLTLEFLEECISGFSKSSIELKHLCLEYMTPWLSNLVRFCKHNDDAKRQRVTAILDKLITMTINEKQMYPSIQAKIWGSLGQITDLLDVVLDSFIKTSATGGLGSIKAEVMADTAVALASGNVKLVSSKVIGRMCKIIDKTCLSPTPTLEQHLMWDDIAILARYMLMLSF

The assay has as its target T1, FLAG-SPRED1 (wild-type Sprouty-related protein with an EVH domain 1) (human) (UniProt Q7Z699).
T1 sequence: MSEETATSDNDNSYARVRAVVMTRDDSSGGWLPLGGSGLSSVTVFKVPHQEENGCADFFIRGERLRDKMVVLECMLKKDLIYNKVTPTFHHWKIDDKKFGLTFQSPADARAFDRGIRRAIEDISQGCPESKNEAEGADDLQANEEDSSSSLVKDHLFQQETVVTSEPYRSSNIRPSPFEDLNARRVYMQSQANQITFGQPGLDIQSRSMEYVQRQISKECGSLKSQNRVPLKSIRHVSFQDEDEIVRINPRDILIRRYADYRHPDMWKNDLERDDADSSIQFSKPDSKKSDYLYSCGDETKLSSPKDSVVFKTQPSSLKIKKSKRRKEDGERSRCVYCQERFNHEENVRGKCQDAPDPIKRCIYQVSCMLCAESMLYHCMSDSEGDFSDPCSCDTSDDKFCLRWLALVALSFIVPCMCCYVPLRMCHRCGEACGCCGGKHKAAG
The assay can be described thus: co-IP; FLAG-SPRED1 (WT or variant) and myc-tagged NF (WT or variant) coexpressed in HEK 293 T cells; complexes immunoprecipitated with anti-FLAG affinity beads; NF signal in the IP fraction by immunoblotting, relative to WT (= 1.0), at least 3 independent experiments. A general note: A western blot detects proteins with antibodies after separation by electrophoresis.

“NF p.2069myc (wild-type neurofibromin, N-terminal 2069 amino acids, myc-tagged) (from UniProt P21359-2 1-2069) (domain or fragment)”: the binding entry is listed as “binds”.

These data come from PMC11918873.
